PubChem BioAssay AID1904 – GNF – 2009

- Assay: 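Knockdowns that alter circadian period or oscillation amplitude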 (follow-up of hits)
- Cells: human U2OS osteosarcoma cells stably expressing a destabilised luciferase driven by the Bmal1 promoter
- Knock-down reagent: siRNA pair against human genes, 12.5 nM (two siRNAs, 0.5 pmol each, per well)
- Duration: about 3 days after transfection, then luminescence recorded for about 4 days
- Read-out: 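Period and amplitude fitted from detrended luminescence traces taken every 2 hours; duplicate wells averaged, compared with the screen mean and grouped into phenotype classes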
- Call rule: 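Scored active if separate single siRNAs repeated the clock phenotype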
- Calls: active = confirmed by single siRNAs; inactive = not confirmed
This is not the whole library: the list holds selected reagents. 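Lists only primary-screen hits; phenotype classes come from fitted traces, and the underlying luminescence values are not given.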 The numbers tell different reagents against one gene apart. Reagent sequences are not shown.

no.	target gene	reagent	clock phenotype class	confirmed with single siRNAs	activity call
1	GPR78	1	shorter clock period; seen with two independent siRNA pairs for the gene	phenotype reproduced by individual siRNAs	active
2	GPR78	2	shorter clock period; seen with two independent siRNA pairs for the gene	phenotype reproduced by individual siRNAs	active
3	OR1E1	1	longer clock period; seen with two independent siRNA pairs for the gene	phenotype reproduced by individual siRNAs	active
4	OR1E1	2	longer clock period; seen with two independent siRNA pairs for the gene	phenotype reproduced by individual siRNAs	active
5	WDR9	1	higher rhythm amplitude; seen with one siRNA pair in duplicate wells	not retested with individual siRNAs	
6	MAPK8	1	longer clock period; seen with two independent siRNA pairs for the gene	phenotype reproduced by individual siRNAs	active
7	MAPK8	2	longer clock period; seen with two independent siRNA pairs for the gene	phenotype reproduced by individual siRNAs	active
8	TRPM4	1	longer clock period; seen with two independent siRNA pairs for the gene	phenotype reproduced by individual siRNAs	active
9	TRPM4	2	longer clock period; seen with two independent siRNA pairs for the gene	phenotype reproduced by individual siRNAs	active
10	R29124_1	1	shorter clock period; seen with two independent siRNA pairs for the gene	phenotype reproduced by individual siRNAs	active
11	R29124_1	2	shorter clock period; seen with two independent siRNA pairs for the gene	phenotype reproduced by individual siRNAs	active
12	C20orf160	1	shorter clock period; seen with two independent siRNA pairs for the gene	phenotype not reproduced by individual siRNAs	inconclusive
13	C20orf160	2	shorter clock period; seen with two independent siRNA pairs for the gene	phenotype not reproduced by individual siRNAs	inconclusive
14	ANTXR1	1	longer clock period; seen with two independent siRNA pairs for the gene	phenotype reproduced by individual siRNAs	active
15	ANTXR1	2	longer clock period; seen with two independent siRNA pairs for the gene	phenotype reproduced by individual siRNAs	active
16	CAD	1	higher rhythm amplitude; seen with one siRNA pair in duplicate wells	phenotype reproduced by individual siRNAs	active
17	CAD	2	higher rhythm amplitude; seen with one siRNA pair in duplicate wells	phenotype reproduced by individual siRNAs	active
18	NOLA2	1	longer clock period; seen with two independent siRNA pairs for the gene	phenotype reproduced by individual siRNAs	active
19	NOLA2	2	longer clock period; seen with two independent siRNA pairs for the gene	phenotype reproduced by individual siRNAs	active
20	GIPC2	1	longer clock period; seen with two independent siRNA pairs for the gene	phenotype reproduced by individual siRNAs	active
21	GIPC2	2	longer clock period; seen with two independent siRNA pairs for the gene	phenotype reproduced by individual siRNAs	active
22	FOXF1	1	shorter clock period; seen with one siRNA pair in duplicate wells	phenotype not reproduced by individual siRNAs	inconclusive
23	FOXF1	2	shorter clock period; seen with one siRNA pair in duplicate wells	phenotype not reproduced by individual siRNAs	inconclusive
24	TH	1	longer clock period; seen with two independent siRNA pairs for the gene	phenotype reproduced by individual siRNAs	active
25	TH	2	longer clock period; seen with two independent siRNA pairs for the gene	phenotype reproduced by individual siRNAs	active
26	PFKP	1	shorter clock period; seen with one siRNA pair in duplicate wells	phenotype reproduced by individual siRNAs	active
27	PFKP	2	shorter clock period; seen with one siRNA pair in duplicate wells	phenotype reproduced by individual siRNAs	active
28	GMNN	1	higher rhythm amplitude; seen with one siRNA pair in duplicate wells	phenotype not reproduced by individual siRNAs	inconclusive
29	GMNN	2	higher rhythm amplitude; seen with one siRNA pair in duplicate wells	phenotype not reproduced by individual siRNAs	inconclusive
30	GPR158	1	longer clock period; seen with two independent siRNA pairs for the gene	phenotype reproduced by individual siRNAs	active
31	GPR158	2	longer clock period; seen with two independent siRNA pairs for the gene	phenotype reproduced by individual siRNAs	active
32	NYX	1	longer clock period; seen with two independent siRNA pairs for the gene	phenotype reproduced by individual siRNAs	active
33	NYX	2	longer clock period; seen with two independent siRNA pairs for the gene	phenotype reproduced by individual siRNAs	active
34	FZD10	1	shorter clock period; seen with one siRNA pair in duplicate wells	phenotype reproduced by individual siRNAs	active
35	FZD10	2	shorter clock period; seen with one siRNA pair in duplicate wells	phenotype reproduced by individual siRNAs	active
36	DKFZp761L1417	1	shorter clock period; seen with two independent siRNA pairs for the gene	phenotype reproduced by individual siRNAs	active
37	DKFZp761L1417	2	shorter clock period; seen with two independent siRNA pairs for the gene	phenotype reproduced by individual siRNAs	active
38	UBQLN4	1	shorter clock period; seen with two independent siRNA pairs for the gene	phenotype reproduced by individual siRNAs	active
39	UBQLN4	2	shorter clock period; seen with two independent siRNA pairs for the gene	phenotype reproduced by individual siRNAs	active
40	SLC25A27	1	shorter clock period; seen with one siRNA pair in duplicate wells	phenotype not reproduced by individual siRNAs	inconclusive
41	SLC25A27	2	shorter clock period; seen with one siRNA pair in duplicate wells	phenotype not reproduced by individual siRNAs	inconclusive
42	RBL1	1	longer clock period; seen with two independent siRNA pairs for the gene	phenotype reproduced by individual siRNAs	active
43	RBL1	2	longer clock period; seen with two independent siRNA pairs for the gene	phenotype reproduced by individual siRNAs	active
44	HIST1H1B	1	higher rhythm amplitude; seen with one siRNA pair in duplicate wells	phenotype reproduced by individual siRNAs	active
45	HIST1H1B	2	higher rhythm amplitude; seen with one siRNA pair in duplicate wells	phenotype reproduced by individual siRNAs	active
46	GPR124	1	longer clock period; seen with two independent siRNA pairs for the gene	phenotype reproduced by individual siRNAs	active
47	GPR124	2	longer clock period; seen with two independent siRNA pairs for the gene	phenotype reproduced by individual siRNAs	active

Next part; the last 7 above are carried over.
no.	target gene	reagent	clock phenotype class	confirmed with single siRNAs	activity call
41	SLC25A27	2	shorter clock period; seen with one siRNA pair in duplicate wells	phenotype not reproduced by individual siRNAs	inconclusive
42	RBL1	1	longer clock period; seen with two independent siRNA pairs for the gene	phenotype reproduced by individual siRNAs	active
43	RBL1	2	longer clock period; seen with two independent siRNA pairs for the gene	phenotype reproduced by individual siRNAs	active
44	HIST1H1B	1	higher rhythm amplitude; seen with one siRNA pair in duplicate wells	phenotype reproduced by individual siRNAs	active
45	HIST1H1B	2	higher rhythm amplitude; seen with one siRNA pair in duplicate wells	phenotype reproduced by individual siRNAs	active
46	GPR124	1	longer clock period; seen with two independent siRNA pairs for the gene	phenotype reproduced by individual siRNAs	active
47	GPR124	2	longer clock period; seen with two independent siRNA pairs for the gene	phenotype reproduced by individual siRNAs	active
48	FUT5	1	longer clock period; seen with two independent siRNA pairs for the gene	phenotype not reproduced by individual siRNAs	inconclusive
49	FUT5	2	longer clock period; seen with two independent siRNA pairs for the gene	phenotype not reproduced by individual siRNAs	inconclusive
50	TDE2	1	longer clock period; seen with two independent siRNA pairs for the gene	phenotype reproduced by individual siRNAs	active
51	TDE2	2	longer clock period; seen with two independent siRNA pairs for the gene	phenotype reproduced by individual siRNAs	active
52	LOC129530	1	shorter clock period; seen with two independent siRNA pairs for the gene	phenotype reproduced by individual siRNAs	active
53	LOC129530	2	shorter clock period; seen with two independent siRNA pairs for the gene	phenotype reproduced by individual siRNAs	active
54	SRPRB	1	longer clock period; seen with two independent siRNA pairs for the gene	phenotype reproduced by individual siRNAs	active
55	SRPRB	2	longer clock period; seen with two independent siRNA pairs for the gene	phenotype reproduced by individual siRNAs	active
56	SCHIP1	1	shorter clock period; seen with two independent siRNA pairs for the gene	phenotype reproduced by individual siRNAs	active
57	SCHIP1	2	shorter clock period; seen with two independent siRNA pairs for the gene	phenotype reproduced by individual siRNAs	active
58	MGC50372	1	higher rhythm amplitude; seen with two independent siRNA pairs for the gene	phenotype not reproduced by individual siRNAs	inconclusive
59	MGC50372	2	higher rhythm amplitude; seen with two independent siRNA pairs for the gene	phenotype not reproduced by individual siRNAs	inconclusive
60	PSMD13	1	longer clock period; seen with two independent siRNA pairs for the gene	phenotype reproduced by individual siRNAs	active
61	NOC4	1	shorter clock period; seen with one siRNA pair in duplicate wells	phenotype reproduced by individual siRNAs	active
62	NOC4	2	shorter clock period; seen with one siRNA pair in duplicate wells	phenotype reproduced by individual siRNAs	active
63	HRPT2	1	longer clock period; seen with two independent siRNA pairs for the gene	phenotype reproduced by individual siRNAs	active
64	HRPT2	2	longer clock period; seen with two independent siRNA pairs for the gene	phenotype reproduced by individual siRNAs	active
65	HCFC1	1	longer clock period; seen with two independent siRNA pairs for the gene	phenotype reproduced by individual siRNAs	active
66	HCFC1	2	longer clock period; seen with two independent siRNA pairs for the gene	phenotype reproduced by individual siRNAs	active
67	USP1	1	longer clock period; seen with two independent siRNA pairs for the gene	phenotype reproduced by individual siRNAs	active
68	USP1	2	longer clock period; seen with two independent siRNA pairs for the gene	phenotype reproduced by individual siRNAs	active
69	CIDEC	1	higher rhythm amplitude; seen with one siRNA pair in duplicate wells	phenotype not reproduced by individual siRNAs	inconclusive
70	CIDEC	2	higher rhythm amplitude; seen with one siRNA pair in duplicate wells	phenotype not reproduced by individual siRNAs	inconclusive
71	PRKCI	1	longer clock period; seen with two independent siRNA pairs for the gene	phenotype reproduced by individual siRNAs	active
72	PRKCI	2	longer clock period; seen with two independent siRNA pairs for the gene	phenotype reproduced by individual siRNAs	active
73	ZNF75	1	higher rhythm amplitude; seen with one siRNA pair in duplicate wells	phenotype reproduced by individual siRNAs	active
74	ZNF75	2	higher rhythm amplitude; seen with one siRNA pair in duplicate wells	phenotype reproduced by individual siRNAs	active
75	BAI3	1	higher rhythm amplitude; seen with one siRNA pair in duplicate wells	phenotype not reproduced by individual siRNAs	inconclusive
76	BAI3	2	higher rhythm amplitude; seen with one siRNA pair in duplicate wells	phenotype not reproduced by individual siRNAs	inconclusive
77	TRIM59	1	longer clock period; seen with two independent siRNA pairs for the gene	phenotype reproduced by individual siRNAs	active
78	TRIM59	2	longer clock period; seen with two independent siRNA pairs for the gene	phenotype reproduced by individual siRNAs	active
79	PRO0149	1	longer clock period; seen with two independent siRNA pairs for the gene	phenotype reproduced by individual siRNAs	active
80	PRO0149	2	longer clock period; seen with two independent siRNA pairs for the gene	phenotype reproduced by individual siRNAs	active
81	EEIG1	1	longer clock period; seen with two independent siRNA pairs for the gene	not retested with individual siRNAs	
82	NR0B2	1	shorter clock period; seen with one siRNA pair in duplicate wells	phenotype reproduced by individual siRNAs	active
83	NR0B2	2	shorter clock period; seen with one siRNA pair in duplicate wells	phenotype reproduced by individual siRNAs	active
84	RING1	1	longer clock period; seen with two independent siRNA pairs for the gene	phenotype reproduced by individual siRNAs	active
85	RING1	2	longer clock period; seen with two independent siRNA pairs for the gene	phenotype reproduced by individual siRNAs	active
